The record followed here is PubChem BioAssay AID272 (DTP/NCI, 2004).

The list is a part of this screen's results and no random one: it is rich in T/C values a quarter to a half above the control, in often repeated tests (any T/C) and in doses without a T/C. Further doses and runs are listed elsewhere. T/C gives the treated animals as a percentage of the vehicle group. Some doses have a count of surviving animals in place of a T/C: the source holds a T/C of zero for them, seemingly a mark for toxic or unscored doses. Some survivor counts are full or nearly so, which does not show that the dose was tolerated: survival well below the control is almost never listed, so the zero probably covers shortened survival too. Counts of survivors are from the toxicity check (mostly the fifth day) where no day follows; animals may have died later. Schedule codes are those of the source, taken here to give the interval after Q, in days (D) or hours (H), and the number of doses after X.

The experiment relates to Lewis lung carcinoma i.m., BDF1 mice, T/C %. Put plainly: NCI In Vivo Anticancer Drug Screen. Data for tumor model Lewis Lung Carcinoma (intramuscular) in B6D2F1 (BDF1) mice. Conditions: T/C endpoint: median survival time, schedule: Q07DX003 (ip), vehicle: Klucel (hydroxypropylcellulose) (HPC), higher T/C = longer survival. A digest of the protocol: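 Compound given to mice with transplantable tumours; survival or tumour size compared against the vehicle control group, reported as T divided by C.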

Consider `O=NN(CCCl)C(=O)NCc1ccc(-c2ccc(CNC(=O)N(CCCl)N=O)cc2)cc1`, for which the survivor count is, setting by setting: (dose: 65.0 mg/kg/injection) 8 of 8; (dose: 300.0 mg/kg/injection) 8 of 8; (dose: 500.0 mg/kg/injection) 5 of 8.
